# Results as given in the supplement of paper PMC4749390.
# Counter-ions that a name gives are not always drawn. The list shows a part of the results. This data set is noisy: repeats of one test often differ as much as different tests do.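 JEG3 cells stably carry tetracycline-induced wild-type human LRH-1, a heavily sumoylated nuclear receptor. APOC3 and MUC1 are SUMO-sensitive transcripts, raised by SUMO-less LRH-1 or UBC9 knockdown, measured by RT-qPCR against TBP and DMSO controls. A robust Z-score above +2 or below -2 marked a primary hit before toxicity and TBP filtering.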
# System: JEG3 expressing hLRH-1
# Test: APOC3 transcript change (ddCt vs TBP and DMSO), Z-score over library; higher = higher APOC3 expression
# Details: 10 µM; time (hr): 24
row,SMILES,APOC3 transcript change (Z-score)
1,O=C(O)C[C@H](O)C[C@H](O)/C=C/c1c(C2CC2)nc2ccccc2c1-c1ccc(F)cc1 [pitavastatin calcium],1.12
2,C=C(C)C1CC=C(C)CC1 (stereo not drawn) [d-limonene],-1.52
3,CCN(CC)CCNC(=O)c1cc(Br)c(N)cc1OC [bromopride],-1.22
4,CN(C)CCN(Cc1ccccc1)c1ccccn1 [Tripelennamine hydrochloride],0.211
5,CC1(C)O[C@]2(C)CC[C@H]1CC2 [eucalyptol],0.667
6,O=[N+]([O-])c1ccc(O)c2ncccc12 [nitroxoline],-1.09
7,COc1c2ccoc2cc2oc(=O)ccc12 [bergapten],-0.215
8,CC(C)NNC(=O)c1ccncc1 [Iproniazid phosphate],-0.777
9,COCCCOc1ccnc(CS(=O)c2nc3ccccc3[nH]2)c1C (stereo unspecified) [rabeprazole sodium],0.406
10,CN1CCN(c2c(F)cc3c(=O)c(C(=O)O)cn4c3c2SCC4)CC1 [rufloxacin hydrochloride],0.526
11,[O-][n+]1cccc(CO)c1 [mepiroxol],-0.156
12,CN(C)CCc1c[nH]c2ccc(CS(=O)(=O)N3CCCC3)cc12 [almotriptan],-0.446
13,N[C@@H](Cc1ccc(O)c(O)c1)C(=O)O [levodopa],0.181
14,NC(=O)c1ccc[n+]([C@@H]2O[C@H](COP(=O)([O-])OP(=O)(O)OC[C@H]3O[C@@H](n4cnc5c(N)ncnc54)[C@H](O)[C@@H]3O)[C@@H](O)[C@H]2O)c1 [nadide],0.26
15,CO[C@H]1C[C@H](O[C@@H]2/C(C)=C/C[C@@H]3C[C@@H](C[C@]4(CC[C@H](C)[C@@H](C5CCCCC5)O4)O3)OC(=O)[C@@H]3C=C(C)/C(=N/O)[C@H]4OC/C(=C\C=C\[C@@H]2C)[C@]43O)O[C@@H](C)[C@@H]1O [selamectin],1.38
16,Oc1ccnc(O)n1 [uracil],0.656
17,NC[C@@H]1O[C@H](O[C@H]2[C@@H](O)[C@H](O[C@@H]3[C@@H](O)[C@H](N)C[C@H](N)[C@H]3O[C@H]3O[C@H](CN)[C@@H](O)[C@H](O)[C@H]3N)O[C@@H]2CO)[C@H](N)[C@@H](O)[C@@H]1O [neomycin sulfate],0.567
18,CCC1(C)CC(=O)NC1=O (stereo unspecified) [ethosuximide],0.638
19,Cc1onc(-c2ccccc2Cl)c1C(=O)N[C@@H]1C(=O)N2[C@@H]1SC(C)(C)[C@@H]2C(=O)O [cloxacillin sodium],-1.21
20,NC(Cc1ccc(Cl)cc1)C(=O)O (racemic) [(±)-p-Chlorophenylalanine],1.42
21,CC(=O)c1ccc(S(=O)(=O)NC(=O)NC2CCCCC2)cc1 [Acetohexamide],-0.0496

row,SMILES,APOC3 transcript change (Z-score)
1,O=C(O)CN1C(=O)c2cccc3cccc(c23)C1=O [alrestatin],-0.0133
2,CCCNC(C)(C)COC(=O)c1ccccc1 [meprylcaine hydrochloride],0.648
3,O=C1c2c(O)ccc(O)c2C(=O)c2c(NCCNCCO)ccc(NCCNCCO)c21 [mitoxanthrone hydrochloride],4.1
4,CC(O)(CC(=O)O)CC(=O)O [meglutol],-0.258
5,N=C(N)/N=C(\N)N1CCOCC1 [moroxydine hydrochloride],-0.574
6,CCn1cc(C(=O)O)c(=O)c2cnc(N3CCCC3)nc21 [piromidic acid],0.819
7,NS(=O)(=O)c1cc2c(cc1C(F)(F)F)NCNS2(=O)=O [hydroflumethiazide],0.339
8,Oc1c(Cl)cc(Cl)cc1Sc1cc(Cl)cc(Cl)c1O [bithionol],-1.45
9,CC(=O)c1ccc2c(c1)N(CCCN(C)C)c1ccccc1S2 [acepromazine maleate],0.46
10,CN1CCC(OC(c2ccccc2)c2ccccc2)CC1 [diphenylpyraline hydrochloride],-0.278
11,Cn1nnc2c(C(N)=O)ncn2c1=O [temozolamide],-0.747
12,OCCc1ccccc1 [phenylethyl alcohol],-0.43
13,C[C@H]1c2cccc(O)c2C(=O)C2=C(O)[C@]3(O)C(O)=C(C(N)=O)C(=O)[C@@H](N(C)C)[C@@H]3[C@@H](O)[C@@H]21 [doxycycline hydrochloride],0.325
14,Nc1ccc(C(=O)O)c(O)c1 [sodium p-aminosalicylate],0.115
15,CN(C)CCCN1c2ccccc2Sc2ccc(Cl)cc21 [Chlorpromazine hydrochloride],0.531
16,CS(=O)(=O)Nc1ccc([N+](=O)[O-])cc1Oc1ccccc1 [nimesulide],-0.805
17,O=C(O)c1ccccc1O [sodium salicylate],-0.00182
18,CCCCOc1cc(C(=O)OCCN(CC)CC)ccc1N [benoxinate hydrochloride],0.461
19,CCC(=O)O[C@]1(C(=O)SCF)[C@H](C)C[C@H]2[C@@H]3C[C@H](F)C4=CC(=O)C=C[C@]4(C)[C@@]3(F)[C@@H](O)C[C@@]21C [fluticasone propionate],0.493
20,CCn1nc(C(=O)O)c(=O)c2cc3c(cc21)OCO3 [cinoxacin],-0.248
21,COC(=O)[C@H](c1ccccc1Cl)N1CCc2sccc2C1 [clopidogrel sulfate],-0.131

row,SMILES,APOC3 transcript change (Z-score)
1,C1CCC(C(CC2CCCCN2)C2CCCCC2)CC1 (stereo unspecified) [perhexiline maleate],1.47
2,CN1CCC(=C2c3ccccc3C=Cc3ccccc32)CC1 [Cyproheptadine hydrochloride],-0.161
3,OCc1ccccn1 [piconol],-0.0605
4,COCCc1ccc(OCC(O)CNC(C)C)cc1 (stereo unspecified) [metoprolol tartrate],1.02
5,COc1cc(CNC(=O)CCCC/C=C/C(C)C)ccc1O [e-capsaicin],0.621
6,CC[C@H]1OC(=O)[C@H](C)[C@@H](O[C@H]2C[C@@](C)(OC)[C@@H](O)[C@H](C)O2)[C@H](C)[C@@H](O[C@@H]2O[C@H](C)C[C@H](N(C)C)[C@H]2O)[C@](C)(OC)C[C@@H](C)C(=O)[C@H](C)[C@@H](O)[C@]1(C)O [clarithromycin],0.246
7,C=NC(C(=O)NC1C(=O)N2C1SC(C)(C)C2C(=O)O)c1ccccc1 (stereo unspecified) [metampicillin sodium],-0.0793
8,CCOC(=O)OC(C)OC1=C(C(=O)Nc2ccccn2)N(C)S(=O)(=O)c2ccccc21 (stereo unspecified) [ampiroxicam],0.132
9,COc1ccc(C(=O)c2ccccc2O)c(O)c1 [dioxybenzone],-0.284
10,CC1CCCC(C)N1 (stereo unspecified) [nanofin],-0.147
11,CC(=O)Nc1cccc(O)c1 [metacetamol],-0.0285
12,CC(=O)OCC(CCn1cnc2cnc(N)nc21)COC(C)=O [famciclovir],-0.584
13,CC[N+](CC)(CC)CCOc1cccc(OCC[N+](CC)(CC)CC)c1OCC[N+](CC)(CC)CC [Gallamine triethiodide],-0.702
14,CC(=O)[C@H]1CCC2C3CCC4=CC(=O)CC[C@]4(C)C3CC[C@@]21C (stereo partly specified) [progesterone],0.743
15,CC(C)(C)NCC(O)c1cc(O)cc(O)c1 (stereo unspecified) [terbutaline hemisulfate],-0.188
16,CCCC(=O)Nc1ccc(OCC(O)CNC(C)C)c(C(C)=O)c1 (stereo unspecified) [acebutolol hydrochloride],-0.162
17,CC(Oc1c(Cl)cccc1Cl)C1=NCCN1 (stereo unspecified) [lofexidine  hydrochloride],-0.89
18,C#CCN(C)CCCOc1ccc(Cl)cc1Cl [Clorgyline hydrochloride],-1.65
19,Cc1cn([C@H]2C[C@H](N=[N+]=[N-])[C@@H](CO)O2)c(=O)[nH]c1=O [zidovudine [azt]],-0.973
20,Clc1ccc2c(c1)CCc1cccnc1C2=C1CCNCC1 [desloratidine],0.337
21,C#CCN(C)Cc1ccccc1 [Pargyline hydrochloride],-0.0763

row,SMILES,APOC3 transcript change (Z-score)
1,CCOC(=O)c1ncn2c1CN(C)C(=O)c1cc(F)ccc1-2 [flumazenil],0.0221
2,O=C(O)/C=C/C(=O)O [fumaric acid],-0.261
3,CO[C@@]1(NC(=O)CSCC#N)C(=O)N2C(C(=O)O)=C(CSc3nnnn3C)CSC21 (stereo partly specified) [cefmetazole sodium],0.537
4,NC(=O)NC1NC(=O)NC1=O (stereo unspecified) [allantoin],0.148
5,CCCCCOC(=O)Nc1nc(=O)n([C@@H]2O[C@H](C)[C@@H](O)[C@H]2O)cc1F [capecitabine],-0.725
6,O=C(O)c1cc(N=Nc2ccc(O)c(C(=O)O)c2)ccc1O [olsalazine sodium],0.663
7,CC12CCC3c4ccc(O)cc4CCC3C1C[C@H](O)[C@@H]2O (stereo partly specified) [epiestriol],-1.12
8,O=C1[C@H](CC[C@H](O)c2ccc(F)cc2)[C@@H](c2ccc(O)cc2)N1c1ccc(F)cc1 [ezetimibe],0.495
9,CC(O)(P(=O)(O)O)P(=O)(O)O [etidronate disodium],0.516
10,C/C=C\C1=C(C(=O)O)N2C(=O)C(NC(=O)C(N)c3ccc(O)cc3)C2SC1 (stereo unspecified) [cefprozil],0.376
11,O=C1/C(=C/c2cccs2)CCC/C1=C\c1cccs1 [tenylidone],0.477
12,CN1C(=O)CC(C)(c2ccccc2)C1=O (stereo unspecified) [methsuximide],0.634
13,CC(C)(O/N=C(\C(=O)N[C@@H]1C(=O)N2C(C(=O)O)=C(C[n+]3ccccc3)CS[C@H]12)c1csc(N)n1)C(=O)O [ceftazidime],-0.0611
14,Cc1nc2ccccc2n1Cc1ccc(Cl)cc1 [chlormidazole],0.0713
15,Cc1cc(O)nc(S)n1 [methylthiouracil],-0.433
16,CC(C)NCC(O)c1cc(O)cc(O)c1 (stereo unspecified) [metaproterenol],0.152
17,CCOC(=O)[C@H](CCc1ccccc1)N[C@@H](C)C(=O)N1[C@H](C(=O)O)C[C@@H]2CCC[C@@H]21 [ramipril],-0.421
18,CNC(=O)c1c(I)c(NC(C)=O)c(I)c(C(=O)O)c1I [iothalamic acid],0.568

# Individual results from the entries so far:
# Entry of `CC(C)(O/N=C(\C(=O)N[C@@H]1C(=O)N2C(C(=O)O)=C(C[n+]3ccccc3)CS[C@H]12)c1csc(N)n1)C(=O)O` [ceftazidime] under APOC3 transcript change (Z-score): -0.0611
# Entry of `O=C(O)c1cc(N=Nc2ccc(O)c(C(=O)O)c2)ccc1O` [olsalazine sodium] under APOC3 transcript change (Z-score): 0.663
# Entry of `CN1C(=O)CC(C)(c2ccccc2)C1=O` (stereo unspecified) [methsuximide] under APOC3 transcript change (Z-score): 0.634
